Test results from US20130261165A1, “PREVENTION AND TREATMENT OF DISEASES CHARACTERIZED BY MESENCEPHALIC DOPAMINERGIC NEURON CELL DEATH” (THE MCLEAN HOSPITAL CORPORATION, priority 2010, published 2013).

Tests used:
[1] = test system: En-1; assay: En-1 mRNA expression by qPCR in primary ventral midbrain cultures; settings: Mus musculus, 24 h, read-out: Fold Increase in En-1 Expression
[2] = test system: FoxA2; assay: FoxA2 mRNA expression by qPCR in primary ventral midbrain cultures; settings: Mus musculus, 24 h, read-out: Fold Increase in FoxA2 Expression

Compound: Nc1nc2ccc(OC(F)(F)F)cc2s1 [Riluzole]
- fold induction at 10 µM [1]: 6.2
- fold induction at 10 µM [2]: 25.9
